Results are given in words; binding and its absence hold for the method and conditions named. In cells and extracts the contact can be indirect. Binding calls can cover weak binding; strength is not graded here. Sequences can lack the tags named with a protein.
Biological target: T1, HA-tagged UL21 of bovine herpesvirus 1 (Bovine herpesvirus 1 (strain IBRV HB06)) (UniProt K4P3K8)
T1 sequence: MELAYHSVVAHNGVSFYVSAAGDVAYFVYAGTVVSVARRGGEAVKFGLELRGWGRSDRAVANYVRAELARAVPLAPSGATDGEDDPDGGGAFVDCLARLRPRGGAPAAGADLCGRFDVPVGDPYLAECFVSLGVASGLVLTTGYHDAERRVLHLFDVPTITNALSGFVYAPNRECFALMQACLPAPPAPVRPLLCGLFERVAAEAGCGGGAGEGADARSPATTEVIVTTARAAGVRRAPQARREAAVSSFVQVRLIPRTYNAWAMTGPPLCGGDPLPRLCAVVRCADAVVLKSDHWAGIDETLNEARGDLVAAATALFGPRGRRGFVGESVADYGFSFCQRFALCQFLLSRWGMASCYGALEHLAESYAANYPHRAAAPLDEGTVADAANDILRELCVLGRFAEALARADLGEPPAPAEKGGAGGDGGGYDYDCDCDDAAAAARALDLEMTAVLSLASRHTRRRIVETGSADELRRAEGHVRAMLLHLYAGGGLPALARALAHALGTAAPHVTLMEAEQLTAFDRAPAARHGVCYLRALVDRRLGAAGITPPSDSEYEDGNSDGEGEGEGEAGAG
Test: co-IP; lysates of MDBK cells infected with vBoHV-1-UL21-HA or wild-type BoHV-1, or mock infected (MOI 3, 18 hpi; lysis buffer with 1% Triton X-100, 1 mM EDTA, 50 mM Tris, 150 mM NaCl) incubated with anti-HA monoclonal antibody magnetic agarose beads for 5 to 6 h at 4°C; five washes; Western blot with antisera against UL16 and UL21 and with anti-HA

For UL16 of bovine herpesvirus 1, the binding was “binds”.

Source: PMC5706888
